# Measurements: patent publication US20170296540A1, “METHODS OF TREATING FRIEDREICH'S ATAXIA USING SRC INHIBITORS” (Fratagene Therapeutics S.R.L., priority 2014, published 2017)
# Entries after “also recorded” stand apart in the source; their conditions may differ. At least one structure is not confirmed: it was looked up by name or label, or the drawing left a doubt. Some entries repeat one wording, which the source may state once for all of them.
# Experiments:
# [1] = test system: HEK293^FXN cells stably expressing single copy of wild type frataxin; test: Frataxin accumulation (western blot, densitometry) in HEK293^FXN cells expressing wild type frataxin; type: cell-based, human; details: for frataxin accumulation (frataxin normalized with tubulin, non-treated cells set to one): wild type frataxin, 1, 3 and 10 μM, 24 h
# Experimental: (§1) FIG. 4. […] HEK293^FXN cells stably expressing single copy of wild type frataxin (WT) or non-phosphorylable Y118F frataxin mutant (Y118F) were treated for 24 h with 1, 3, and 10 μM of either Src inhibitor SU6656, PP2, dasatinib, bosutinib, saracatinib, or vehicle (−). […] Data are representative of three independent experiments. The precursor (P), intermediate (I) and mature (M) frataxin forms are indicated. Right panels: Densitometric quantification of frataxin accumulation for the corresponding inhibitor.
# (§2) HEK-293 Flp-In cells (Life Technologies) are HEK-293 variants allowing the stable and isogenic integration and expression of a transfected gene. The HEK-293 clone stably expressing frataxin^1-210 (Condo et al. 2007) and the clone stably expressing frataxin^V118F were generated by mutagenesis as described below. HEK-293 Flp-In cells were maintained in DMEM supplemented with 10% FBS.
# (§3) Densitometric analyses were performed using ImageLab software (Biorad).
# (§4) Because phosphorylation on Y118 promotes ubiquitination and that preventing ubiquitin-dependent degradation increases frataxin levels (Rufini et al. 2011), the effects of frataxin phosphorylation by Src kinase were tested for enhancement of frataxin expression.
# [2] = test system: HEK293^FXN cells stably expressing non-phosphorylable Y118F frataxin mutant; test: Frataxin accumulation (western blot, densitometry) in HEK293^FXN cells expressing Y118F frataxin mutant; type: cell-based, human; details: 1, 3 and 10 μM, 24 h
# Experimental: as §1, §2, §3, §4
# [3] = test system: endogenous frataxin in HEK293 cells; test: Endogenous frataxin accumulation in HEK293 cells (western blot, densitometry); type: cell-based, human; details: 1, 3 and 10 μM, 24 h
# [4] = test system: FRDA patient-derived B cells (GM16214); test: Frataxin accumulation in frataxin-deficient FRDA patient-derived B cells (western blot, densitometry); details: 10 μM, time course 24 h to 72 h
# [5] = test system: HEK293^FXN cells stably expressing a single copy of wild-type frataxin; test: Frataxin precursor accumulation with Src inhibitor, ubiquitin competing molecule or combination in HEK293^FXN cells; details: dasatinib 100 nM combined with F166 1 uM; 24 h
SMILES,"frataxin accumulation (frataxin normalized with tubulin, non-treated cells set to one) [1]","frataxin accumulation (frataxin normalized with tubulin, non-treated cells set to one) [2]",activity on frataxin accumulation at lower concentrations ([1]; data not shown),endogenous frataxin accumulation [3],frataxin accumulation in frataxin-deficient cells (mature frataxin) [4],"frataxin precursor accumulation, combination [5]"
CN1CCN(CCOc2cc(OC3CCOCC3)c3c(Nc4c(Cl)ccc5c4OCO5)ncnc3c2)CC1 [saracatinib],upregulate wild type frataxin,not the non-phosphorylable Y118F frataxin mutant,–,–,–,–
COc1cc(Nc2c(C#N)cnc3cc(OCCCN4CCN(C)CC4)c(OC)cc23)c(Cl)cc1Cl [bosutinib],upregulate wild type frataxin,not the non-phosphorylable Y118F frataxin mutant,–,–,–,–
Cc1nc(Nc2ncc(C(=O)Nc3c(C)cccc3Cl)s2)cc(N2CCN(CCO)CC2)n1 [dasatinib],upregulate wild type frataxin,not the non-phosphorylable Y118F frataxin mutant,still active in the nanomolar range of concentrations,promote endogenous frataxin accumulation,further accumulated within 72 h; also recorded: promote frataxin accumulation,further enhances the ability of the ubiquitin competing molecule F166 to accumulate frataxin precursor
